Experimental data as given in publication PMC4382702, “Artificial human Met agonists based on macrocycle scaffolds” (Nature Communications, 2015).
These are yes or no findings as the source states them, for the method shown. Some results given as binding are weak or reduced against the parent protein; the word gives no strength.

Chains of the proteins cited; added tags and fusions are not shown. Residues count along the entry.
UniProt P14210, residues 32-728: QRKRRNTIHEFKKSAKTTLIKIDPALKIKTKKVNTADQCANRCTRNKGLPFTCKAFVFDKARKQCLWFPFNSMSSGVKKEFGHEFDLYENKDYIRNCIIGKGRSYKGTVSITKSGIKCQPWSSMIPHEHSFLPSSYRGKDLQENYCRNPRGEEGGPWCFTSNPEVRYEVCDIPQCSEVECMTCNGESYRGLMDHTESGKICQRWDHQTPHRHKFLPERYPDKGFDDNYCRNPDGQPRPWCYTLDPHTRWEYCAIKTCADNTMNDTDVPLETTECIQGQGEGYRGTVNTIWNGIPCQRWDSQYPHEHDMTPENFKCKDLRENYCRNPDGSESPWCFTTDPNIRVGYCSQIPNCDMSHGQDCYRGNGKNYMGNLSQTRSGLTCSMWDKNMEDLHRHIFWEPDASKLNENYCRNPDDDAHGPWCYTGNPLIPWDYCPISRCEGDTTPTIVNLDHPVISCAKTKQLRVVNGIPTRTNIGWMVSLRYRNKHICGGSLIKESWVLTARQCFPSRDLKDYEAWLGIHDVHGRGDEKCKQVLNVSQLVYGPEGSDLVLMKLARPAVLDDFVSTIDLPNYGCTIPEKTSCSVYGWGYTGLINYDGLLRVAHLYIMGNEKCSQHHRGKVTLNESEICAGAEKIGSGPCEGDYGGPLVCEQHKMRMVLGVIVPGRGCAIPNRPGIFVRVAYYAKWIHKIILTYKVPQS
UniProt Q75ZY9, residues 25-935: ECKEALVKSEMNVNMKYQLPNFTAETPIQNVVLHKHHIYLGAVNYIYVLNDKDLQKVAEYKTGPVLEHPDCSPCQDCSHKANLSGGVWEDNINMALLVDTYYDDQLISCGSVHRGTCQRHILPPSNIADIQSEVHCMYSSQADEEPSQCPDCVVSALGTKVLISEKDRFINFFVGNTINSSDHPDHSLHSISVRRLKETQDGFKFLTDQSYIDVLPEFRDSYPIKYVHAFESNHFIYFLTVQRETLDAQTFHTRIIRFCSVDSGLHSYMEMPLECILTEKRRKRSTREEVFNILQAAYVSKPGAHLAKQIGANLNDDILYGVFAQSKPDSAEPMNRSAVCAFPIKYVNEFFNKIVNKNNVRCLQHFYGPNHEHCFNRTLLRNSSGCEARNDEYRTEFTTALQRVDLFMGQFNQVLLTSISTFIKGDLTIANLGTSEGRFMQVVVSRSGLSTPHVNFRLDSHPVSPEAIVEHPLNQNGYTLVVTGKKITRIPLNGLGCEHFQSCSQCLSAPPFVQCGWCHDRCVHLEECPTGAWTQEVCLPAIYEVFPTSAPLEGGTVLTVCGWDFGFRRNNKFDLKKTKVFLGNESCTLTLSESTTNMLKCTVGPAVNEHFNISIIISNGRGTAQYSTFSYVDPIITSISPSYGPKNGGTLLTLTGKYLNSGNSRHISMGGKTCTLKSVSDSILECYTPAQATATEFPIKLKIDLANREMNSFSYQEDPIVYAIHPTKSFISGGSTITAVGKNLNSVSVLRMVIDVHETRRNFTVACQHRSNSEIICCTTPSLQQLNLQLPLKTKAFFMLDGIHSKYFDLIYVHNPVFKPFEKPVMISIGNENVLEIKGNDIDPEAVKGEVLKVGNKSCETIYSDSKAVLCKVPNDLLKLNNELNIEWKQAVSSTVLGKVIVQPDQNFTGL

Biological target: biotinylated hHGF (human) (UniProt P14210)
Assay: SPR; Biacore T200; biotinylated macrocycle (200-500 RU) or biotinylated hHGF (~2,200 RU) immobilised on a CAP sensor chip (Biotin CAPture Kit); human, murine or canine Met ectodomain tested; single-cycle kinetics; HBS EP+ with 0.1% DMSO; 1:1 binding model; both purified

| binding | Substance |
| --- | --- |
| binds | Recombinant human Met ectodomain-Fc chimera protein (from UniProt P08581 25-932) (Fc fusion) |
| binds | canine Met ectodomain (from UniProt Q75ZY9 25-935) (domain or fragment) |
| binds | murine Met ectodomain-Fc chimera protein (from UniProt P16056 25-931) (Fc fusion) |
